# The other results are listed elsewhere or left out. Further columns of the screen follow, without active or inactive calls. Most of these compounds were active or inconclusive in the main read-out, so they are no random draw. Potencies come from curve fits of mixed quality, noted in brackets.
# Test: qHTS Assay for Modulators of Lamin A Splicing
# Settings: HeLa LMNA splicing GFP/RFP minigene ratio, 48 h
# Method in brief: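 S3 HeLa stable clones carrying a lamin A-EGFP splicing minigene plus DsRed2 were seeded at 600 cells/well in Opti-MEM with 2% FBS, pin-dosed and incubated 48 h at 37°C. Acumen cytometry (488 nm) gave the GFP/RFP total-intensity ratio.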
# [1] = measured here: GFP splicing reporter channel
# [2] = measured here: RFP viability control channel
Compound,AC50 [1],AC50 [2]
C=CCc1c(C)[nH]c2c(OC)cccc2c1=S,"35.5 µM [falling, single point]",–
O=C1C(NS(=O)(=O)c2cccs2)=C(N2CCN(c3cccc(C(F)(F)F)c3)CC2)C(=O)c2ccccc21,"35.5 µM [rising, single point]","35.5 µM [rising, single point]"
COc1ccccc1C(=O)N1CCN(Cc2cn[nH]c2-c2ccc(F)cc2F)CC1,"10 µM [falling, partial curve, poor fit]",–
COc1ccc(-c2[nH]ncc2CN2CCN(c3ccc(F)cc3)CC2)cc1,–,"0.00447 µM [falling, full curve, poor fit]"
O=c1c(N2CCN(c3ccccc3)CC2)csc2ccc(Cl)cc12,"8.91 µM [falling, partial curve, poor fit]",–
CCOC(=O)C1Cn2c(nc3c(c2=O)C(C)(CC)Cc2ccccc2-3)S1 (stereo not drawn),–,"31.6 µM [rising, single point]"
O=C(CCSCc1cccc(Cl)c1)NCc1ccccc1Cl,"0.398 µM [falling, full curve]",–
COc1ccc(NC(=O)CSc2nc3c(cc2C#N)CN(C)CC3)cc1,"14.1 µM [rising, single point]","35.5 µM [rising, single point]"
CCN1c2ccccc2-n2cccc2C12CCN(C(=O)Nc1ccccc1Br)CC2,"3.55 µM [rising, single point]","3.55 µM [rising, single point]"
CC(C)CN1CCN(Cc2nc3ccccc3s2)CC1CCO (stereo not drawn),"22.4 µM [falling, single point]","35.5 µM [falling, partial curve, poor fit]"
N#CC1=C(N)SC(N)=C(C#N)C1c1cccc(Oc2ccccc2)c1,–,"31.6 µM [rising, single point]"
CCOCCCNC(=O)CNC(=S)N(Cc1ccccc1F)C1CCCCC1,"2.51 µM [falling, partial curve]","1.58 µM [falling, partial curve, poor fit]"
CCOc1cc2[nH]c(=O)n(Cc3ccc(C(=O)N4CCN(c5ccccc5)CC4)cc3)c(=O)c2cc1OCC,"10 µM [falling, partial curve, poor fit]","12.6 µM [falling, partial curve, poor fit]"
CCC/C(O)=C1\C(=O)CC(C)(C)CC1=Nc1ccc(OC)cc1OC,–,"12.6 µM [rising, partial curve]"
Cc1nc(-c2ccc(Cl)cc2)sc1CCNC(=O)C(=O)Nc1ccc2c(c1)OCCO2,"3.55 µM [falling, partial curve]","31.6 µM [falling, partial curve, poor fit]"
COc1cc(/C=C/C(=O)c2ccc(C)c([N+](=O)[O-])c2)cc(OC)c1O,"35.5 µM [falling, single point]","35.5 µM [falling, single point]"
CCOC(=O)c1cccc(NC(=O)CN2C(=O)C3C4C=CC(C4)C3C2=O)c1 (stereo not drawn),–,"0.316 µM [rising, partial curve, poor fit]"

# Quoted at random: 2 records from the list
Compound,AC50 [1],AC50 [2]
CCC/C(O)=C1\C(=O)CC(C)(C)CC1=Nc1ccc(OC)cc1OC,–,"12.6 µM [rising, partial curve]"
COc1ccc(-c2[nH]ncc2CN2CCN(c3ccc(F)cc3)CC2)cc1,–,"0.00447 µM [falling, full curve, poor fit]"

# Next records:

Compound,AC50 [1],AC50 [2]
Cc1ccccc1/C=C/c1nc2ccccc2c(=O)n1CCc1ccccc1,–,"14.1 µM [rising, partial curve]"
CCOC(=O)c1nnn(CC(=O)NC(=O)Nc2ccccc2)c1C(=O)OCC,–,"35.5 µM [falling, single point]"
COc1cccc(-n2c(SCC(=O)N3CCc4ccccc43)nc3c([nH]c4ccccc43)c2=O)c1,"0.0224 µM [falling, full curve, poor fit]","0.0224 µM [falling, full curve, poor fit]"
CC(C)(C)c1cc(NC(=O)CSc2nnc(N)s2)n(-c2ccccc2)n1,–,"20 µM [rising, partial curve, poor fit]"
Cc1cc(C)c(O)c(-c2cc(C(=O)NCc3ccccc3)[nH]n2)c1,"11.2 µM [rising, single point]","12.6 µM [rising, single point]"
O=C(Nc1ccc(S(=O)(=O)Nc2nccs2)cc1)c1ccc(N2C(=O)c3ccccc3C2=O)cc1,"2 µM [falling, partial curve, poor fit]","0.00891 µM [falling, full curve, poor fit]"
C=C(C)C1CC=C(C)/C(=N\NC(=S)Nc2ccc(C)cc2)C1 (stereo not drawn),"10 µM [rising, partial curve, poor fit]","35.5 µM [rising, single point]"
Cn1cnnc1SCC(=O)c1cc2ccccc2o1,–,"11.2 µM [rising, single point]"
CN(C)c1ccc(NC(=O)Nc2cccc(Cl)c2)cc1,–,"6.31 µM [rising, partial curve, poor fit]"
Cn1cnc2c(NCc3ccccc3)nc(NCCO)nc21,"0.00501 µM [falling, full curve, poor fit]",–
COc1ccc(-n2c(=O)[nH]c3c(C(N)=O)nc(C4CCCCC4)nc32)cc1,–,"5.01 µM [rising, single point]"
COc1ccc(S(=O)(=O)NCc2cccn2Cc2cccc(C)c2)cc1Cl,"35.5 µM [falling, single point]","12.6 µM [falling, single point]"
Cc1c(CCOC(=O)CC23CC4CC(CC(C4)C2)C3)sc[n+]1CC(=O)c1ccc(Br)cc1,–,"20 µM [rising, single point]"
COC(=O)c1ccc(COc2ccccc2/C=C(\C#N)C(=O)Nc2c(C)cccc2C)cc1,"8.91 µM [rising, partial curve]","12.6 µM [rising, partial curve]"
Cc1ccc(NC(=O)Cn2c(=O)cnc3ccccc32)cc1S(=O)(=O)N(C)C,–,"35.5 µM [rising, partial curve]"
NC(N)=NC(N)=Nc1ccc(SC(F)(F)F)cc1,"12.6 µM [rising, single point]","12.6 µM [rising, partial curve]"

# From PubChem BioAssay AID1487 (National Center for Advancing Translational Sciences (NCATS), 2009)
